Measured values as given in PubChem BioAssay AID1347075 (National Center for Advancing Translational Sciences (NCATS), 2019).
The whole screen tested about 400,000 compounds, of which about 5,500 (1.4%) were called active. The shares of active, inactive and inconclusive entries below differ from those in the screen. Calls follow the shape of the dose curve; as a rule, active = well fitted cell-killing curve with a large enough effect; inconclusive = small, poorly fitted or top-dose-only effect, or effect the other way; inactive = flat fitted curve, though single readings scatter. Where the call is inconclusive, the potency comes from a doubtful curve fit.
% is scaled to controls: 0 for no effect and ±100 for the full control effect; potency is read from the fitted curve at half-maximal effect.

Assay: qHTS assay for MDR1-selective chemotherapeutics: Primary screen using the parental adenocarcinoma cell KB-3-1; also: nearly all actives have a fitted effect of over 60% in size
Settings: KB-3-1 viability, CellTiter-Glo ATP luminescence, 72 h; activity change, negative = cytotoxic: at 46.1 µM (top of the series)
Outline: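 Cytotoxicity in the drug-sensitive parental line KB-3-1 was scored as loss of CellTiter-Glo luminescence following 72 h incubation with compound. Values come from curve fitting of normalized concentration-response data.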
With `COc1ccc(-n2ccnc(NCc3cccs3)c2=O)cc1OC` the Potency was “inactive”. In the case of `CCOC(=O)c1nc(Nc2ccc(C(=O)O)cc2)c2ccccc2n1`, the Potency is reported as “inactive”. For `COc1cc(C2C3=C(CCCC3=O)Nc3ccc4ncccc4c32)ccc1O` (stereo not drawn), the Potency was inconclusive: 1.16 µM [cytotoxic, full curve, poor fit]. For `COc1cccc(C(NC(C)=O)c2ccc3cccnc3c2O)c1` (stereo not drawn), the Potency was active: 3.66 µM. For `CCOc1cc2nc(-c3ccc(OC)c(OC)c3)nc(N3CCOCC3)c2cc1OC`, the Potency was inconclusive: 29.1 µM [cytotoxic, single point]. For `Cc1ccc[n+](CC2OCc3ccccc3CO2)c1`, the Potency was “inactive”. In the case of `CCCCc1ccc(NC(=O)c2cc(-c3ccc(C)c(F)c3)on2)cc1`, the Potency is reported as “inactive”. With `Cc1ccc(NC(=O)c2cccc(S(=O)(=O)N(C)c3ccccc3)c2)cc1S(=O)(=O)N1CCOCC1` the Potency was inconclusive: 18.4 µM [cytotoxic, single point]. With `Cn1c(O)c(C2=c3ccccc3=NC2=O)sc1=Nc1ccc(Cl)cc1` the Potency was inconclusive: 18.4 µM [cytotoxic, single point]. In the case of `C=CCN1C=CC(=C/C=C(/C#N)C(=O)OCC)C=C1`, the Potency is reported as “inactive”. For `Cc1ccc(OCc2nc(-c3ccc(C(=O)NCCc4ccc(Cl)cc4)cc3)oc2C)cc1`, the Potency was “inactive”. With `COCCNC(=O)C(OC(=O)c1ccco1)c1ccc(OC)cc1` (stereo not drawn) the Potency was inconclusive: 32.6 µM [rising, single point]. With `Cc1ccccc1CN1C[C@H]2CON(C)[C@H]2C[C@H]1c1cccc(Br)c1` the Potency was inconclusive: 16.4 µM [cytotoxic, single point]. In the case of `COc1ccc(C2=C(Nc3ccc(Br)c(C)c3)c3ccccc3C2=O)cc1`, the Potency is reported as “inactive”. For `CCC(C)[C@H](NC(=O)[C@@H]1CSC2c3ccccc3C(=O)N21)C(=O)N1CCCCC1` (stereo partly drawn), the Potency was “inactive”. For `CN(Cc1ccc(Cl)cc1)C(C(=O)NC1CCCCC1)c1cc2ccccc2o1` (stereo not drawn), the Potency was “inactive”. For `CCN(CC)C(=O)CSc1nc2cccnc2n1-c1ccccc1OC`, the activity change, negative = cytotoxic was inconclusive: 13.7%. For `COc1ccccc1NC(=O)c1ccc2c(O)c(S(=O)(=O)c3ccccc3)c(=O)[nH]c2c1`, the Potency was “inactive”. With `OCC[C@@H]1C[C@H](O)[C@@H](O)[C@@]2(OCc3ccc(CO)cc32)O1` the activity change, negative = cytotoxic was inconclusive: -38.4% [cytotoxic]. In the case of `COc1cc(/C=C/C(=O)c2ccc3c(c2)OCCO3)cc(OC)c1OC`, the Potency is reported as inconclusive: 23.1 µM [cytotoxic, single point]. In the case of `CN(C)CCOc1nc(-c2ccccc2)nc2c1oc1ccccc12`, the Potency is reported as inconclusive: 18.4 µM [cytotoxic, single point]. For `COc1ccc(S(=O)(=O)c2cnc3cc(OC)c(OC)cc3c2N2CCCC(C)C2)cc1` (stereo not drawn), the Potency was inconclusive: 16.4 µM [cytotoxic, single point]. With `C1=Cc2ccccc2/C1=C\c1cccc(/C=C2\C=Cc3ccccc32)c1` the Potency was inconclusive: 32.6 µM [cytotoxic, single point]. In the case of `Oc1cc(NCCN2CCOCC2)cc2cccnc12`, the Potency is reported as active: 14.6 µM. For `O=C(NCc1ccc2c(c1)OCO2)NC1CCCCC1`, the Potency was “inactive”. In the case of `CCCc1cc(=O)oc2cc(C)cc(O)c12`, the Potency is reported as active: 14.6 µM. With `O[C@@H]1CN(CC2CCCCC2)[C@@H](c2ccccc2)C[C@H]1n1cc(C2CC2)nn1` the Potency was active: 20.6 µM. In the case of `O=C(Cc1ccc(S(=O)(=O)N2CCOCC2)s1)NCCOc1ccccc1`, the Potency is reported as “inactive”. In the case of `CCOP(=O)(OCC)C(Cc1ccccc1)N=C(c1ccccc1)c1ccccc1` (stereo not drawn), the Potency is reported as inconclusive: 29.1 µM [cytotoxic, single point]. In the case of `CC(=O)Nc1ccc(S(=O)(=O)NC2(C(F)(F)F)NC(=O)N(c3ccc(Cl)cc3)C2=O)cc1` (stereo not drawn), the Potency is reported as inconclusive: 23.1 µM [rising, single point]. In the case of `COc1ccc(-c2oc3cc(O)c(OC)c(O)c3c(=O)c2OC)cc1`, the Potency is reported as inconclusive: 20.6 µM [cytotoxic, single point]. With `O=C(Nc1ccc(Br)cn1)c1ccc2nccnc2c1` the Potency was inconclusive: 29.1 µM [cytotoxic, single point]. In the case of `O=C(c1[nH]c(C(F)(F)F)nc1-c1ccccc1)N1CCC(C(O)(c2ccccc2)c2ccccc2)CC1`, the Potency is reported as “inactive”. With `O=C(O)COc1ccccc1/C=N/NC(=O)CNC(=O)c1ccco1` the Potency was “inactive”. For `Cc1ccc(OCC(=O)NCCCNC(=O)c2ccncc2)cc1`, the Potency was “inactive”. With `O=C(/C=C/c1ccc2ccccc2n1)c1cc(Br)ccc1O` the Potency was “inactive”. With `CCN1CCN(c2cc(C)c3cc(NC(=O)c4ccc(Br)o4)ccc3n2)CC1` the Potency was inconclusive: 29.1 µM [cytotoxic, single point]. For `Cc1ccc(C(=O)COC(=O)c2cc(-c3ccc(Cl)cc3)nc3ccccc23)cc1`, the Potency was “inactive”. In the case of `Cc1cccc(CCNS(=O)(=O)c2ccc3c(c2)CCN3C(=O)CCC(=O)O)c1`, the Potency is reported as inconclusive: 29.1 µM [rising, single point]. For `Cn1c(=O)c2c(nc(NCc3ccco3)n2CC(O)COc2ccccc2)n(C)c1=O` (stereo not drawn), the Potency was inconclusive: 20.6 µM [cytotoxic, single point]. With `COc1ccc(-n2c(C)cc(/C=C3/SC(=O)N(CC(=O)N4CCOCC4)C3=O)c2C)cc1` the Potency was inconclusive: 25.9 µM [rising, single point]. For `CN(C)c1ncnc2c1ccn2C1OC(CO)C(O)C1O` (stereo not drawn), the Potency was active: 0.82 µM. With `COc1cccc(C(=O)Nc2ccc(NC(=O)c3cc4ccccc4o3)c(OC)c2)c1` the Potency was inconclusive: 29.1 µM [cytotoxic, single point]. With `Cc1cc(-c2ccc(Br)s2)nc(-n2cccc2)n1` the Potency was inconclusive: 14.6 µM [rising, partial curve, poor fit]. In the case of `O=C(NCc1ccco1)c1ccc([N+](=O)[O-])o1`, the Potency is reported as inconclusive: 29.1 µM [cytotoxic, single point]. In the case of `O=C(N/N=C/c1cccc(Oc2ccccc2)c1)c1cccc(O)c1`, the Potency is reported as inconclusive: 23.1 µM [cytotoxic, single point]. With `NNC(=O)COc1ccc(-c2nccc(-c3ccc(F)cc3)n2)cc1` the Potency was inconclusive: 0.517 µM [rising, full curve]. In the case of `CCC(C)(C)n1nnnc1CN1CCN(c2nc3cc(OC)ccc3cc2C#N)CC1`, the Potency is reported as inconclusive: 29.1 µM [cytotoxic, single point]. With `NNC(=O)c1ccc(COc2ccc3ccccc3c2)cc1` the Potency was inconclusive: 29.1 µM [cytotoxic, single point]. For `COCc1c(C(=O)NC2CCCCC2)sc2cccc(F)c12`, the Potency was inconclusive: 25.9 µM [cytotoxic, single point]. In the case of `COc1ccc(CCN2C(=O)c3ccccc3C2c2nnnn2-c2c(C)cccc2C)cc1OC` (stereo not drawn), the Potency is reported as “inactive”. For `O=C(CCN1CCN(c2ccccc2)CC1)Nc1ccc(OCc2ccccc2)cc1`, the Potency was “inactive”. With `O=C(c1cc(-c2ccco2)nc2ccccc12)N1CCN(Cc2ccccc2)CC1` the Potency was “inactive”. In the case of `NC(=S)NNC(=O)[C@@H]1CCCC[C@@H]1C(=O)O`, the Potency is reported as “inactive”. With `Cc1cc(C(=O)COC(=O)c2ccc(O)cc2O)c(C)n1-c1ccc(OC(F)F)cc1` the Potency was active: 16.4 µM. With `CNCCCOc1cccc(Oc2ccccc2)c1` the Potency was inconclusive: 29.1 µM [cytotoxic, single point]. With `CN(C)/C=N/c1nc2nccc(-c3ccc(F)cc3)n2n1` the Potency was “inactive”. With `Cn1c(=O)c2c(ncn2CC(=O)OCC(=O)Nc2cccc(C#N)c2)n(C)c1=O` the Potency was “inactive”. In the case of `COC(=O)c1c(NC(=O)/C=C/C(=O)O)sc(C)c1-c1ccc(C)cc1`, the Potency is reported as inconclusive: 29.1 µM [cytotoxic, single point]. In the case of `CCC(C)C(=O)OC1CCC=C2C=CC(C)C(CCC3CC(O)CC(=O)O3)C21` (stereo not drawn), the Potency is reported as active: 13 µM. With `Cc1ccc(S(=O)(=O)c2c(Nc3cccc(Cl)c3)sc(C(=O)c3ccc4c(c3)OCO4)c2N)cc1` the Potency was active: 14.6 µM. In the case of `COc1cc(C)ccc1OCCSc1nnc(-c2ccc(C)cc2)o1`, the Potency is reported as “inactive”. In the case of `Cc1ccc(-n2nnnc2-c2cnc3ccc(Cl)cc3c2-c2ccccc2)cc1`, the Potency is reported as active: 7.31 µM. In the case of `O=C1N(Cc2ccc(F)cc2Cl)c2ccccc2C12OCCCO2`, the Potency is reported as inconclusive: 25.9 µM [cytotoxic, single point]. In the case of `O=C(CCC(=O)N1CCOc2ccc(Cl)cc21)NCCCN1CCC(Cc2ccccc2)CC1`, the Potency is reported as inconclusive: 29.1 µM [cytotoxic, single point]. For `CCOC(=O)C1=CCN(S(=O)(=O)c2ccc(C)cc2)C1c1cccc(Cl)c1` (stereo not drawn), the Potency was inconclusive: 29.1 µM [cytotoxic, single point]. For `Cc1cccc(/C=C2\Sc3ccc(C(=O)N4CCC(C)CC4)cc3N(C)C2=O)c1`, the Potency was inconclusive: 23.1 µM [cytotoxic, single point]. For `CCCN(C)C[C@@H]1OCCCC[C@@H](C)Oc2ccc(NC(=O)c3ccccc3)cc2C(=O)N([C@H](C)CO)C[C@@H]1C`, the Potency was active: 4.61 µM. In the case of `CCCN(CCC)S(=O)(=O)c1ccc(C(=O)NNC(=O)c2cc(OC)c(OC)c(OC)c2)cc1`, the Potency is reported as inconclusive: 13 µM [rising, partial curve, poor fit]. In the case of `CN1[C@@H](Cc2ccccc2)COc2cc(N3CCSCC3)ccc2S1(=O)=O`, the Potency is reported as inconclusive: 29.1 µM [cytotoxic, single point]. In the case of `Cc1ccc(NC(=O)CNc2cccc(S(=O)(=O)N3CCCC3)c2)cc1F`, the Potency is reported as inconclusive: 29.1 µM [cytotoxic, single point]. In the case of `COc1cc(/C=C/C(=O)c2ccc3c(c2)OCCO3)cc(Br)c1OCC(=O)N(C)C`, the Potency is reported as active: 5.17 µM. With `O=C(NCc1ccco1)c1ccc(S(=O)(=O)c2cccc(S(=O)(=O)N3CCOCC3)c2)cc1` the Potency was inconclusive: 18.4 µM [cytotoxic, partial curve, poor fit].
